Measured values reported in patent publication US20190275061A1, “INHIBITION OF FIBROSIS IN NON ALCOHOL FATTY LIVER DISEASE PATIENTS” (GALMED RESEARCH AND DEVELOPMENT LTD, priority 2016, published 2019).
For at least one compound, name, drawing or mass did not settle the structure.

Tests used:
NASH patients = settings: phase 2 trial in NASH patients; cited from earlier work
[1] = system: Thioacetamide (TAA)-Induced Fibrosis; assay: Thioacetamide (TAA)-induced fibrosis, model for hepatic cirrhosis; format: in vivo; settings: 5 mg/kg co-administered with TAA, 10 weeks, Wistar rats
Description: Liver fibrosis was induces in Wistar rats by intraperitoneal injections of TAA […] body weight) twice per week during 10 weeks. I.p. application of TAA results in hepatic centrolobular necrosis, elevated transaminase activity and robust liver fibrosis. Treatment groups further included co-administration of Aramchol (1 or 5 mg/kg orally) or obaticholic acid (OCA, 5 mg/kg). A control group of saline-treated rats (in the absence of TAA administration) was further included. Rats were then sacrificed, and livers were observed macroscopically for signs of cirrhosis and necrotic lesions, and microscopically, following Masson Goldner staining. The fibrosis score, calculated at a scale of 0-4, was determined for each sample, wherein 0 indicates no fibrosis and 4 indicates advanced fibrosis and cirrhosis.

## CC[C@H]1[C@@H](O)[C@@H]2[C@H](CC[C@]3(C)[C@@H]([C@H](C)CCC(=O)O)CC[C@@H]23)[C@@]2(C)CC[C@@H](O)C[C@@H]12 [OCA, Obeticholic acid, reference compound]
NASH patients
  insulin sensitivity: increased
  markers of liver inflammation and fibrosis: reduced
[1]
  TAA induced fibrosis: did not induce statistically significant reduction
  collagen distribution in the tissue (FIG. 2): did not induce statistically significant reduction
  development of necrosis and cirrhosis (macroscopic, FIG. 1): did not induce statistically significant reduction
  fibrotic score (Masson Goldner staining, scale 0-4, FIG. 2): did not induce statistically significant reduction
